# The supplement of paper PMC11732987, “Enantioselective OTUD7B fragment discovery through chemoproteomics screening and high-throughput optimisation” (Communications Chemistry, 2025)
# Sequences of proteins named here, by UniProt entry; tags and fusion partners are left off. A change or cut given only in a name is not applied to a line headed by its entry. Residues count along the entry.
# UniProt P11802: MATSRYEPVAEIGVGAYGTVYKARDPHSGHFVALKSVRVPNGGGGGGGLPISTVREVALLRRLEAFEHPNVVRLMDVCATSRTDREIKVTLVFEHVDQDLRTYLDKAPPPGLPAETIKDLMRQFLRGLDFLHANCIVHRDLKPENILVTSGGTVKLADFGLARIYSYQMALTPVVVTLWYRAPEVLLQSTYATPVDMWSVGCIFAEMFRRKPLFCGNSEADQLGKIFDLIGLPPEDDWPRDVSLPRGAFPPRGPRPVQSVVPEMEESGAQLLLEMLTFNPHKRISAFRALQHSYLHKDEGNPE
# UniProt Q53EZ4: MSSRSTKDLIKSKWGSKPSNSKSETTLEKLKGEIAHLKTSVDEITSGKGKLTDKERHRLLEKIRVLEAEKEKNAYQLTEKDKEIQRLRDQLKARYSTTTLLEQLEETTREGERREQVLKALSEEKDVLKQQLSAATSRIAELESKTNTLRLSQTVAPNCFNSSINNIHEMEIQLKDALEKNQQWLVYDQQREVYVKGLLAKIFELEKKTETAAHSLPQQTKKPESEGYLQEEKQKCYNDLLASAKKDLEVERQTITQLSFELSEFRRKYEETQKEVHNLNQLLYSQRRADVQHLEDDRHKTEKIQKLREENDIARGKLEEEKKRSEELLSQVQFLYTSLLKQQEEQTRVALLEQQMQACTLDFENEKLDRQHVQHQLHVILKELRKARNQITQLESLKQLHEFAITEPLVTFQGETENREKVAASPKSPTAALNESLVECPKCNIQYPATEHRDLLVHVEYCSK
# UniProt Q13111, whole entry, looked up: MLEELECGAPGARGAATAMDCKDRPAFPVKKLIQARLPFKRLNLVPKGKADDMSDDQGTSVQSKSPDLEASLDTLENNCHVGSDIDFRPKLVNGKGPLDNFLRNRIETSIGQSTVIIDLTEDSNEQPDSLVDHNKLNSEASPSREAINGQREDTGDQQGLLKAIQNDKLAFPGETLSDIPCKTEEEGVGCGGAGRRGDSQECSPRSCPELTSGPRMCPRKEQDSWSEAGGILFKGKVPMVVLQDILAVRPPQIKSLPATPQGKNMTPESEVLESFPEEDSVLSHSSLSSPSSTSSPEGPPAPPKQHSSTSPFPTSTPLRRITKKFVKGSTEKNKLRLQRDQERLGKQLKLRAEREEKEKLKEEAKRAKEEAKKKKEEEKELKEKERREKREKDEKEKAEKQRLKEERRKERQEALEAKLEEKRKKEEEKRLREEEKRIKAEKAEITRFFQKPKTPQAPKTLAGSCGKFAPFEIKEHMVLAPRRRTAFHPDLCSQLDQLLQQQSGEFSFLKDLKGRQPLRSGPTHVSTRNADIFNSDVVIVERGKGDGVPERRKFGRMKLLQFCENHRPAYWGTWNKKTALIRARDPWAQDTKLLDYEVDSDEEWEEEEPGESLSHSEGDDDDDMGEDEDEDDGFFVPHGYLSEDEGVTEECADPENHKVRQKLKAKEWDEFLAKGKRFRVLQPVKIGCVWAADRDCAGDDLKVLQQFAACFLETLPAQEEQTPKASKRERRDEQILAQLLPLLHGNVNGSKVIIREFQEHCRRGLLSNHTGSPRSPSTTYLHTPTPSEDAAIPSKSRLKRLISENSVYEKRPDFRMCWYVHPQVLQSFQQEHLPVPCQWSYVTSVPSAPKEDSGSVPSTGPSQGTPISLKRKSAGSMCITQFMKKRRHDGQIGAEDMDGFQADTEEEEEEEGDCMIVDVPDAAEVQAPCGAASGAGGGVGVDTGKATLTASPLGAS
# UniProt Q02224: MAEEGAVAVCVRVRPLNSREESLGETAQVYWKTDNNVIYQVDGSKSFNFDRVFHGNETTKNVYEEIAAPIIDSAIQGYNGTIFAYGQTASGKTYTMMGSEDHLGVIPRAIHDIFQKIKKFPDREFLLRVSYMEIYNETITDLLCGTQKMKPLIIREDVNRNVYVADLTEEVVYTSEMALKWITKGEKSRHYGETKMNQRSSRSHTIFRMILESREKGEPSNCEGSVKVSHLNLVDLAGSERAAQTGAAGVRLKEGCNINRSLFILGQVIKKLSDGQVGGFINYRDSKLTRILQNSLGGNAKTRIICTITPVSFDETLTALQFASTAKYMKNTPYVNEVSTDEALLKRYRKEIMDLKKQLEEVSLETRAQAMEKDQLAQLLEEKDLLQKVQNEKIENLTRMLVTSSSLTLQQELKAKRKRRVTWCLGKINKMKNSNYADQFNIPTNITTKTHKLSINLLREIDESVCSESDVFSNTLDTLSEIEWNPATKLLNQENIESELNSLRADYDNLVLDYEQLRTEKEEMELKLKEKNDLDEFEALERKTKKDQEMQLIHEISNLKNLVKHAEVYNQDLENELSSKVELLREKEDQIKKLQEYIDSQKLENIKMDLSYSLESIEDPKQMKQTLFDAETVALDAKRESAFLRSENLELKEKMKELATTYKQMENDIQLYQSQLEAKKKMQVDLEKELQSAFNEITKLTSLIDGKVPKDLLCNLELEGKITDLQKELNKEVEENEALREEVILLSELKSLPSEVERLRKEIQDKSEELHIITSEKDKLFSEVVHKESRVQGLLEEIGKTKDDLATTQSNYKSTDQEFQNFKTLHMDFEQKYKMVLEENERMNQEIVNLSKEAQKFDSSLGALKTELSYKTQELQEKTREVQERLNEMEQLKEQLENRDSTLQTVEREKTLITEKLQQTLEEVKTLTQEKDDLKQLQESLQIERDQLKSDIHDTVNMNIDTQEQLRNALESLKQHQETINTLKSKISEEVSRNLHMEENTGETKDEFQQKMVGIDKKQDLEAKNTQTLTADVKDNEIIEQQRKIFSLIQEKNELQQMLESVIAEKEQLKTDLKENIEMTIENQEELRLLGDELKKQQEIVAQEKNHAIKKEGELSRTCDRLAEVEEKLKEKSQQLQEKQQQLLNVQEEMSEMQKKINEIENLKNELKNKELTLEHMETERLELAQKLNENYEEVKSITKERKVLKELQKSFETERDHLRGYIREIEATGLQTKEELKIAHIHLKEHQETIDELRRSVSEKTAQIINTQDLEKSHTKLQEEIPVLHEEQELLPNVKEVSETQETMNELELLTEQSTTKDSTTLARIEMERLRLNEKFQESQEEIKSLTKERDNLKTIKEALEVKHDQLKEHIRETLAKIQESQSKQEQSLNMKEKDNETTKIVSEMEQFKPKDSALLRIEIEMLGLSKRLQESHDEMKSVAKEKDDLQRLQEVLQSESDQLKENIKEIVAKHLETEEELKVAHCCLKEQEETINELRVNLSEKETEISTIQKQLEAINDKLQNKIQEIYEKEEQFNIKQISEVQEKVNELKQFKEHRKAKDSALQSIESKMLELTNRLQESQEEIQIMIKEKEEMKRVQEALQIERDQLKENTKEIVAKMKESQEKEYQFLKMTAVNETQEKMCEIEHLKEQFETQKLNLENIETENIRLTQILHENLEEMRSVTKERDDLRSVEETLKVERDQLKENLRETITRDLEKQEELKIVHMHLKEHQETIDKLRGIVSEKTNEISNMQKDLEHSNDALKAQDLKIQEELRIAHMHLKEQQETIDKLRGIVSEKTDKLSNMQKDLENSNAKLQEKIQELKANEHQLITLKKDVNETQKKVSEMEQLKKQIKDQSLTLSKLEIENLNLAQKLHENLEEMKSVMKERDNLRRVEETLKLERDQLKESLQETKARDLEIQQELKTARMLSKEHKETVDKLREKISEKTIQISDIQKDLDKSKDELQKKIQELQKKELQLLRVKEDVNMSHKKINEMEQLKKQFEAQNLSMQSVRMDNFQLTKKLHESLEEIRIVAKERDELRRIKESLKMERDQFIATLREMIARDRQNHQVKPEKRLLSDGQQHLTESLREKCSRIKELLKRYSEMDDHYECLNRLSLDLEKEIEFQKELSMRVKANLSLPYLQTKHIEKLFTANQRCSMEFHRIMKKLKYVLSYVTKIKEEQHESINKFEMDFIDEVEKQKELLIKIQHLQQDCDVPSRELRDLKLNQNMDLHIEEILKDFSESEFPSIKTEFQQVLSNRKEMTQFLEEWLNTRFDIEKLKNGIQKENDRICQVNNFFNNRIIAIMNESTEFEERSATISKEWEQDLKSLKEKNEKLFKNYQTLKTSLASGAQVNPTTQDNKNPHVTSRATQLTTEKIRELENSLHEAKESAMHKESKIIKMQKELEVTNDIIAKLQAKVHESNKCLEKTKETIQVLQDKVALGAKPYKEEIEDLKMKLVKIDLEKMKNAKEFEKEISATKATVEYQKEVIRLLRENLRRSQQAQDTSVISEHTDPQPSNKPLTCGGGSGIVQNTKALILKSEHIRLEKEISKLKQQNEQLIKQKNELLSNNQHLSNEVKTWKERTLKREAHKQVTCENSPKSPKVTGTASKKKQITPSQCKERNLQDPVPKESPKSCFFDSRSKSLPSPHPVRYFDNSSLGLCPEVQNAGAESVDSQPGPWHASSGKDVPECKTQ
# UniProt Q5JTW2: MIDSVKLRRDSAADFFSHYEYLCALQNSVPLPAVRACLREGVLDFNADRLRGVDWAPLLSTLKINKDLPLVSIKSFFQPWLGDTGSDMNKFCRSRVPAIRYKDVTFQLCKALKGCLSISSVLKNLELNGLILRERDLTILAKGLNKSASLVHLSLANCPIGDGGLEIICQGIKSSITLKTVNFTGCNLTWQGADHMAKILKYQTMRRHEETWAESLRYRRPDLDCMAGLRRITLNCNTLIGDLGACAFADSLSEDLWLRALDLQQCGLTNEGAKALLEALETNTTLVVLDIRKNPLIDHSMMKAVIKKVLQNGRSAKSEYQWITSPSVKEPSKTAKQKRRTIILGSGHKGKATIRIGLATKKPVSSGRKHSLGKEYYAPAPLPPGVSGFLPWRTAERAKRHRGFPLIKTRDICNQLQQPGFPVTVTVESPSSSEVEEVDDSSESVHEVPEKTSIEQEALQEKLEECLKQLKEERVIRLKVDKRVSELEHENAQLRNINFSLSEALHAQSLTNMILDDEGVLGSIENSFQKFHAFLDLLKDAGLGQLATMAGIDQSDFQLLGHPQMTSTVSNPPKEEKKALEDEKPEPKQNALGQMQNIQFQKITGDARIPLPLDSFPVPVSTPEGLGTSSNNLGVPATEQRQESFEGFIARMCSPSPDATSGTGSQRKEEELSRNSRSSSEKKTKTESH
# UniProt Q3V6T2, 219-241: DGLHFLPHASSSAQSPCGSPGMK
# UniProt P50991, 97-122: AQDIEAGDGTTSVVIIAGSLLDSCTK
# UniProt Q9UJX2: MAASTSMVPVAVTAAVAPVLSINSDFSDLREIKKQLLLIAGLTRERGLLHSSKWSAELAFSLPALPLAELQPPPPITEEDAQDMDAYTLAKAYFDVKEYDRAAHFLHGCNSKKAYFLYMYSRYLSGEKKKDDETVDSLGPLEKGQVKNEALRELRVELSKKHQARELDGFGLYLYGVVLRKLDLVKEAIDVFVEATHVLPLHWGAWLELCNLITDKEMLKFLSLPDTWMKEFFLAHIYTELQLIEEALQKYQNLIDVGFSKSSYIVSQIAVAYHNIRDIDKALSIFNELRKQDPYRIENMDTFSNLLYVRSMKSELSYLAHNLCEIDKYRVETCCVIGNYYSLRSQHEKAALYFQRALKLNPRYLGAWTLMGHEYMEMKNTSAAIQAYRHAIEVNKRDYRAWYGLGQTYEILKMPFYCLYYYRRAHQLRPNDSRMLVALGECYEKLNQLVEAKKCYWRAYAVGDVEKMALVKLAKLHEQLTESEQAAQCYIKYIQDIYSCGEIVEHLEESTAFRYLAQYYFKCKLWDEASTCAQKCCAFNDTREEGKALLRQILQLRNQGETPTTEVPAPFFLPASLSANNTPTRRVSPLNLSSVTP
# UniProt P07199: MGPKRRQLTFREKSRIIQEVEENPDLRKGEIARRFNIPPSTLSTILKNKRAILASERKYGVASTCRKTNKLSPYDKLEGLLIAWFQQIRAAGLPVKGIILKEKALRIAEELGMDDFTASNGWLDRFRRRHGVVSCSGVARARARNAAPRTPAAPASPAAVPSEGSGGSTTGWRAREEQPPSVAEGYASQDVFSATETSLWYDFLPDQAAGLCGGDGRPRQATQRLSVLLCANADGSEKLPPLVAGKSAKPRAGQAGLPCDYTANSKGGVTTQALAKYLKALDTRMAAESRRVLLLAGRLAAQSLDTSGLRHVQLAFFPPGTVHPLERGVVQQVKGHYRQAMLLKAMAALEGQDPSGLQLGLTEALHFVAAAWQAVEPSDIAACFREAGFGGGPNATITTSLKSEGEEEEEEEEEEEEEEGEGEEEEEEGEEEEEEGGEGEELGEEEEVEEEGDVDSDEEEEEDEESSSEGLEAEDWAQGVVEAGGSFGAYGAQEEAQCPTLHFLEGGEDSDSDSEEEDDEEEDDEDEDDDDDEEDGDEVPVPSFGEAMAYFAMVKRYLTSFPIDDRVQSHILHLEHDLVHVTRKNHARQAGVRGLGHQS
# The other results are listed elsewhere or left out. The data scatter; read single values as rough.
# What was measured:
# [1] = compound: ClCC(=O)N[C@@H]1CCCc2ccccc12; assay: log2 mean competition ratio of IA-DTB cysteine labelling (DMSO/compound) (log2 ratio); higher = stronger cysteine engagement by compound; conditions: treatment time: 4 h, cell line lysate: HEK293T
# Method: (§1)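 IA-DTB competitive cysteine chemoproteomics in HEK293T RIPA lysate. Lysates were treated with compound 29 or 30 at 50 or 200 µM for 4 h, then IA-DTB (500 µM, 1 h), trypsin-digested, NeutrAvidin-enriched and analysed by diaPASEF. Competition ratio = intensity DMSO / intensity compound (n=4 treated, n=64 DMSO); binding: mean log2 CR ≥ 1 and p ≤ 0.05 plus QC filters. Target is the cysteine site.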
# [2] = compound: ClCC(=O)N[C@H]1CCCc2ccccc12; assay: as above; conditions: treatment time: 4 h, cell line lysate: HEK293T
# Method: as §1
Target,log2 mean competition ratio ([1]; 50 µM),log2 mean competition ratio ([1]; 200 µM),log2 mean competition ratio ([2]; 50 µM),log2 mean competition ratio ([2]; 200 µM)
CEP250 C2348 (UniProt Q9BV73),0.0593,-0.00918,0.296,-0.196
CEP192 C1562 (UniProt Q8TEP8),0.114,-0.0018,0.134,-0.339
CCNT1 C111 (UniProt O60563),0.272,-0.286,0.444,-0.331
CDCA2 C824 (UniProt Q69YH5),0.0508,0.286,0.306,0.115
CDK4 C215 (UniProt P11802),-0.0394,0.0445,-0.49,-0.169
CCT3 C366,-0.317,-0.00844,-0.34,0.0349
CENPC C472 (UniProt Q03188),-0.0724,-0.288,-0.178,-0.274
CCDC144A;CCDC144CP C1116;(C926),0.0809,0.154,-0.0294,0.14
CENPU C239 (UniProt Q71F23),-0.166,0.244,-0.451,0.127
CCDC97 C17 (UniProt Q96F63),0.0649,0.155,0.0301,0.0211
CDC42 C105,0.259,-0.371,0.202,-0.403
CEP55 C462 (UniProt Q53EZ4),0.0622,0.0577,0.0755,-0.0322
CEP192 C272 (UniProt Q8TEP8),-0.151,0.289,0.129,0.377
CDK5RAP3 C150 (UniProt Q96JB5),-0.0942,-0.0794,-0.134,-0.104
CHAF1A C465 (UniProt Q13111),0.077,0.0853,0.18,0.124
CENPF C2738 (UniProt P49454),-0.0931,-0.0351,-0.147,-0.0891
CCDC88C C1871 (UniProt Q9P219),-0.106,0.219,0.291,-0.0629
CDK5RAP2 C1267 (UniProt Q96SN8),-0.2,0.0339,-0.236,0.398
CENPE C256 (UniProt Q02224),-0.00876,0.355,0.11,0.163
CCDC102A C150 (UniProt Q96A19),-0.242,0.322,-0.261,0.151
CELSR2 C1323 (UniProt Q9HCU4),0.0395,0.269,-0.35,0.63
CCNB2 C314 (UniProt O95067),0.1,0.0117,0.413,0.0245

# Retrieved one by one from the list above, 2 records:
Target,log2 mean competition ratio ([1]; 50 µM),log2 mean competition ratio ([1]; 200 µM),log2 mean competition ratio ([2]; 50 µM),log2 mean competition ratio ([2]; 200 µM)
CDCA2 C824 (UniProt Q69YH5),0.0508,0.286,0.306,0.115
CHAF1A C465 (UniProt Q13111),0.077,0.0853,0.18,0.124

# (next part)

Target,log2 mean competition ratio ([1]; 50 µM),log2 mean competition ratio ([1]; 200 µM),log2 mean competition ratio ([2]; 50 µM),log2 mean competition ratio ([2]; 200 µM)
CEP78 C653 (UniProt Q5JTW2),-0.113,-0.1,-0.274,-0.233
CCDC88A C1244 (UniProt Q3V6T2),-0.0275,-0.144,-0.0763,-0.0911
CDC73 C145 (UniProt Q6P1J9),-0.175,-0.223,0.608,0.307
CENPE C2643 (UniProt Q02224),0.0923,0.398,-0.124,0.421
CDCA7 C289,-0.0806,-0.128,-0.128,0.646
CCDC14 C297,-0.196,0.305,-0.0902,0.303
CEP350 C1557 (UniProt Q5VT06),-0.234,0.105,0.0901,0.0568
CDC16 C194 (UniProt Q13042),0.00653,0.0388,-0.665,0.00255
CEP135 C316 (UniProt Q66GS9),0.303,-0.0396,0.119,0.0311
CCDC22 C369 (UniProt O60826),-0.0252,0.389,0.131,0.265
CDKN2AIP C503 (UniProt Q9NXV6),-0.134,0.166,-0.315,0.211
CD320 C132 (UniProt Q9NPF0),0.171,0.0105,0.956,0.398
CCT4 C450 (UniProt P50991),0.173,-0.132,0.342,-0.00209
CCDC88A C235 (UniProt Q3V6T2),0.582,0.0664,1.01,0.209
CHAF1A C761 (UniProt Q13111),-0.228,0.0622,0.0529,-0.162
CDC23 C489 (UniProt Q9UJX2),-0.062,-0.197,0.039,-0.203
CCT4 C120 (UniProt P50991),-0.286,0.0694,-0.173,-0.149
CHD1L C135 (UniProt Q86WJ1),-0.224,-0.251,0.661,0.159
CEP350 C179 (UniProt Q5VT06),-0.244,-0.35,0.238,-0.264
CENPB C65 (UniProt P07199),0.228,0.168,0.463,0.148
CDYL2 C288,0.371,-0.313,0.324,-0.159
CENPE C2602 (UniProt Q02224),-0.122,-0.0354,-0.11,0.0943
